# The supplement of paper PMC3334620
# In all, about 33,000 sequences were measured (“E-score (-0.5 to 0.5)”: median about -0.0014, highest 2% from about 0.25 on). This is one part of the list.
# Target: T1, Cad1 (UniProt P24813)
# T1 sequence: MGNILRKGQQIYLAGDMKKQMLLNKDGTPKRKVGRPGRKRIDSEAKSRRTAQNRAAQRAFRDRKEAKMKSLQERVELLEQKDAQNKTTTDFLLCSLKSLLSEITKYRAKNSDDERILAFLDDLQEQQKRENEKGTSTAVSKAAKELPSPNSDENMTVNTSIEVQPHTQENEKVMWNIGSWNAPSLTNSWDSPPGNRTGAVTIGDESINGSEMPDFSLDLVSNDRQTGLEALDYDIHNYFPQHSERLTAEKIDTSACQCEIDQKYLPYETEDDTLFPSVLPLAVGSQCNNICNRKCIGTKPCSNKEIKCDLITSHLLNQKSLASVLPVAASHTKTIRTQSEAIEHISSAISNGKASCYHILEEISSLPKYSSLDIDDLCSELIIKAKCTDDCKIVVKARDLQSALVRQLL
# Experiment: PBM E-score (8-mer binding enrichment) (E-score (-0.5 to 0.5)); higher = stronger / more preferred TF binding
# Conditions: protein concentration: 100 nM; construct: GST-full length
# Method: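 Universal 'all 10-mer' protein binding microarrays (Agilent AMADID 015681) probed with GST-tagged S. cerevisiae TFs (full-length or DBD) made by in vitro transcription/translation (PURExpress), about 100-200 nM. Bound TF was detected with fluorescent anti-GST. Each ungapped 8-mer (which stands for itself and its reverse complement) is scored by the PBM enrichment score (E-score), a modified Wilcoxon-Mann-Whitney statistic from -0.5 to +0.5, computed with the Universal PBM Analysis Suite. Scale: above 0.35 generally sequence-specific binding.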
row,Sequence,PBM E-score
1,ACTCTAAA,0.101
2,TTCCTAAA,-0.0718
3,GCATCACC,-0.0453
4,GGTGACAA,0.227
5,CAATACGC,0.11
6,CTGAACGC,-0.00607
7,CCGGCCGG,0.0539
8,AGAAGTCC,-0.187
9,CCCGGCAA,-0.0126
10,GCCCTGCC,-0.266
11,AGGTGAGG,-0.0397
12,AAGTGCAA,0.0338
13,TGTGATAA,0.203
14,ATGAATAC,0.0231
15,TCGCCCAA,0.0242
16,CAACCGGG,-0.0276
17,TGATTCAA,0.0493
18,CACATGGA,-0.0211
19,CTCATAGA,0.0924
20,TATACTGA,0.288
21,ACAAAGTG,0.0733
22,ACAATCGA,0.155
23,ACGCGCGG,0.136
24,ATTATTAA,0.384
25,TGAAAAAA,0.157

row,Sequence,PBM E-score
1,CACGCCGG,0.00425
2,ATGAGGAC,-0.0183
3,GCCATCGC,-0.0798
4,CGTTTGCC,0.121
5,AGATAATG,0.169
6,GGACTCTA,-0.157
7,ACGGCGAG,-0.0541
8,GCATACAA,0.0139
9,AACGGGAA,0.00234
10,ACCACGTG,-0.0522
11,ACGTGTAG,-0.075
12,GCATCCCC,-0.268
13,AATGAAGT,0.0399
14,TCAAATGA,-0.0111
15,ATATCGGG,0.0906
16,AGTCACCC,-0.102
17,CGTCGGTA,-0.197
18,GAATAAAA,0.242
19,ACCAGCGC,0.00226
20,GCTTGATA,0.22
21,TCCTAAGA,-0.131
22,ATATGATG,0.0529
23,GTTGTAAA,-0.0654
24,AGGGCAGC,-0.00125
25,ATGCACAA,0.0466

row,Sequence,PBM E-score
1,AAACATGG,0.00473
2,CAATGAGA,-0.13
3,ACGGTTAT,-0.0865
4,ACCAGGTA,-0.239
5,AAATTGGA,0.238
6,AACGATTG,0.0114
7,AGGTAGTG,0.0658
8,CCTTGGAG,0.0392
9,ACCGTCCT,-0.0118
10,GAGTGTGA,0.028
11,CGGCCAAC,-0.0328
12,ATCCCTAA,-0.121
13,AAAGCCGC,-0.0533
14,GCAGCGGC,-0.0963
15,CGGAGGGA,-0.0156
16,GAGAAACA,0.181
17,CCGTTGCG,0.0552
18,CACACGTA,-0.193
19,CCATAATA,0.00312
20,CCCTGAGG,-0.2
21,CAGTGATC,0.0334
22,AAAAGGTT,-0.227
23,ATTCATCC,0.0565
24,AGATAGTC,-0.0777
25,CGTATTAG,0.165

# An excerpt of these results, with tabs.
row	Sequence	PBM E-score
2	CAATGAGA	-0.13
3	ACGGTTAT	-0.0865
4	ACCAGGTA	-0.239
5	AAATTGGA	0.238
6	AACGATTG	0.0114
7	AGGTAGTG	0.0658
8	CCTTGGAG	0.0392

# Later entries.

row,Sequence,PBM E-score
1,TCTAGAGA,-0.267
2,GGCTGAAA,-0.00366
3,CTCTCGCC,-0.205
4,AGATCGAA,0.0446
5,GCGGGAAA,0.144
6,GAATTACA,0.172
7,ATGTCGGA,0.083
8,CCCATCGC,-0.0535
9,GTTTCTTA,0.0603
10,CGTGACCC,-0.185
11,AGTGGCCG,-0.114
12,AGGATTCC,-0.106
13,CTAGATGC,0.0694
14,CCATCTCC,0.0554
15,GGCCGCCA,-0.133
16,AGCTCTTA,0.0297
17,GACTGTGA,0.163
18,AGCCCATA,-0.0468
19,ATGTTATA,0.126
20,ATAGGCAA,-0.0672
21,ACTCGCTC,-0.0958
22,AGGAACCT,0.115
23,AGTTTAAG,-0.0404
24,CTGAGACA,0.00784
25,TTAAGCAA,-0.0269

# Quoted from above for reference:
row,Sequence,PBM E-score
3,CTCTCGCC,-0.205
4,AGATCGAA,0.0446

# (further entries)

row,Sequence,PBM E-score
1,GATTAGGA,-0.0959
2,CTCAGGAA,-0.0567
3,TAATTCTA,0.0885
4,GCGCTCGA,0.141
5,CTCCTGGA,-0.149
6,GCCGGACA,0.106
7,ACGTCGGG,-0.269
8,CCGCGTTA,0.021
9,ATCCAGTG,0.164
10,CCACTTGC,-0.153
11,ACCCATCT,-0.00952
12,CAAGAACA,0.0216
13,GGTATGTA,-0.103
14,ATCTCCGC,-0.0702
15,GAGATGGA,-0.0539
16,CGCAAAGC,0.107
17,ACGAGGGA,-0.064
18,CTCCGAAA,0.12
19,AAATGAAA,0.21
20,AGGCTTAA,0.00349
21,CGTCGGAA,0.127
22,CGACTCGA,0.0395
23,GCGAAGCC,-0.24
24,CCGAAAAG,-0.0748
25,AGGGTCCC,-0.168

row,Sequence,PBM E-score
1,ATCCCTGA,0.0504
2,CAATATCC,-0.0995
3,CCGGCTCC,-0.246
4,AGTGCGGA,0.166
5,AGGGCCAC,-0.0783
6,CTGTCTCA,-0.0231
7,AAACAGAT,0.156
8,AGCTTTGG,-0.0638
9,ACGTAATG,0.147
10,GTTCGACA,0.201
11,AAAATCGT,0.0805
12,AGATCCAT,-0.0869
13,CAGAGCGC,-0.107
14,GTGCCAAC,-0.00784
15,GGAGAACC,-0.207
16,AGGCGCGG,-0.053
17,TAAACTTA,-0.0541
18,CTGTTTCA,0.00662
19,ATGGGAGA,-0.209
20,ATTGCTTG,0.0809
21,GGTAAGGA,-0.0745
22,CTCTCAAA,0.0393
23,AAGCTGGT,0.103
24,TGAAGCCA,-0.166
25,ATAACAGC,0.221

row,Sequence,PBM E-score
1,CCACGTTC,-0.0106
2,AAAACAAT,0.244
3,CGTCCACC,-0.133
4,ATCCTTCA,-0.174
5,GACTTCAC,-0.0269
6,CATTGGGC,-0.256
7,GGCTTAAA,0.00342
8,GCACTCAC,-0.0802
9,GCGAGCGC,0.127
10,CAGCCGAG,-0.0395
11,CCATTTCC,-0.00658
12,AATTAAAT,0.198
13,CACGATAC,-0.231
14,GCGTTTTA,0.0811
15,TCACGCCA,0.0264
16,GTCCAAGA,-0.236
17,AATAATAA,0.305
18,TATAGGCA,-0.155
19,TAGTTGAA,0.15
20,AGACTCCA,-0.0447
21,AAGTACCA,0.0672
22,AGCATGTG,0.0189

# Quoted at random: 2 records from the list.
row,Sequence,PBM E-score
3,CGTCCACC,-0.133
6,CATTGGGC,-0.256
